According to paper PMC9601310:
No constants are given. Whether binding was seen depends on the method and setting. Binding seen in cells or lysates may run through a third protein. Some entries that bind do so weakly or less than the wild type.

Chains of the proteins cited; added tags and fusions are not shown. Residues count along the entry.
UniProt Q8VI56, residues 21-1905: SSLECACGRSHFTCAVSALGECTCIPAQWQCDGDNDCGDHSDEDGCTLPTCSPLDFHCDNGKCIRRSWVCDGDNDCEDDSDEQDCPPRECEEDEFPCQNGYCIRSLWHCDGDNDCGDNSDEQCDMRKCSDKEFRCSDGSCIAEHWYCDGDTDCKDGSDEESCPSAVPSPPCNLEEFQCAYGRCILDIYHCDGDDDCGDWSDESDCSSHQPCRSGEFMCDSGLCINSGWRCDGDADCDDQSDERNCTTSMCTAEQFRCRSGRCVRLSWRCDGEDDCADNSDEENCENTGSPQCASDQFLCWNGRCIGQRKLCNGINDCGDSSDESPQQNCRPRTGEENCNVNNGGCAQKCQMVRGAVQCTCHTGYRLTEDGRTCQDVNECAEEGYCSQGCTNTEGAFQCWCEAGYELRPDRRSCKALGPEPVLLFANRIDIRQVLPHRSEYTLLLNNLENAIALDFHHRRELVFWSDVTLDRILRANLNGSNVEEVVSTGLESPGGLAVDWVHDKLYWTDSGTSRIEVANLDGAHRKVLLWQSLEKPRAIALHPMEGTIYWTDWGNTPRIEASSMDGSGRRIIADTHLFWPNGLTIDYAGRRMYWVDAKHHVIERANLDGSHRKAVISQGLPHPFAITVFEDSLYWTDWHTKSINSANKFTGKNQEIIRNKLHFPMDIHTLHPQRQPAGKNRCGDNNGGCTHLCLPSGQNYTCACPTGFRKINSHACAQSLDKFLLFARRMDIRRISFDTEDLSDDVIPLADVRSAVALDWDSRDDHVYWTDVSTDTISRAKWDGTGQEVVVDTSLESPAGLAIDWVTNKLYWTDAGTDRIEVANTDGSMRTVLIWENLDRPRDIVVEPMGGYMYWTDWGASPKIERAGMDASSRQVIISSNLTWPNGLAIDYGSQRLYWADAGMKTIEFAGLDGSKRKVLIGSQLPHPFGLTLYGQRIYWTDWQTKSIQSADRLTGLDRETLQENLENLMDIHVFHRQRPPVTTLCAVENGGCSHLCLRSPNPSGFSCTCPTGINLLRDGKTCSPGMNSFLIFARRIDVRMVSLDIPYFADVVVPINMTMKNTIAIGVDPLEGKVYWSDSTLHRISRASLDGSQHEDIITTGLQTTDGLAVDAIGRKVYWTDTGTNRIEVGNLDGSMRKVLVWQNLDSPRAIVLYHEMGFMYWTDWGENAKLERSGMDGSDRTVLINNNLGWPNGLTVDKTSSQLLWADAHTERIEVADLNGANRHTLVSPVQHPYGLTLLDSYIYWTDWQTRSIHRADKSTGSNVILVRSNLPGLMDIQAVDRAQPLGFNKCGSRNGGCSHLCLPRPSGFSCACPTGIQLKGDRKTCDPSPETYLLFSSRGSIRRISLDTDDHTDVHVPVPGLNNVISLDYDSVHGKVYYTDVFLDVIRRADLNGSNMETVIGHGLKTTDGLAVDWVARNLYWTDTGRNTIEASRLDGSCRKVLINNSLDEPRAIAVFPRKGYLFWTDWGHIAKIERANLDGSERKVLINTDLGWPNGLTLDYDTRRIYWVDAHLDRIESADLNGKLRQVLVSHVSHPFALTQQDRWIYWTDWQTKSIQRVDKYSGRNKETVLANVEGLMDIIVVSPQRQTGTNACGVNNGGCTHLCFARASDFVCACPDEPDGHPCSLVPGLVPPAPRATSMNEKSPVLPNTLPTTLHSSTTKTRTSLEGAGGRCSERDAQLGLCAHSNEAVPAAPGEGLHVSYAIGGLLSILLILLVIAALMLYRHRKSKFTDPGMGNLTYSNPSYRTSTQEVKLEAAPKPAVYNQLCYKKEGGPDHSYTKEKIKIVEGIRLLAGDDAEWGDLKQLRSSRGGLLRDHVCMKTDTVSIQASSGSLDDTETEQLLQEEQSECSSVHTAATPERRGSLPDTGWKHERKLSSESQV

Target: Low-density lipoprotein receptor-related protein 4 (mouse (endogenous in C2C12)) (UniProt Q8VI56)
Experiment: co-IP; C2C12 cells treated with 10 ug/mL LRP4 antibody for 30 min, lysed in 50 mM Tris, 100 mM NaCl, 0.5% Triton X-100, pH 7.5, 1 mM PMSF; anti-SNX17, anti-LRP4 or control IgG on protein A/G magnetic beads, 4°C 12 h; western blotting

B1: Sorting nexin 17 (protein, UniProt Q8BVL3 1-470)
chain: MHFSIPETESRSGDSGGSAYVAYNIHVNGVLHCRVRYSQLLGLHEQLRKEYGANVVPAFPPKKLFSLTPAEVEQRREQLEKYMQAVRQDPLLGSSETFNSFLRRAQQETQQVPTEEVSLEVLLSNGQKVLVTVLTSDQTEDVLEAVAAKLDLPDDLIGYFSLFLVREKEDGAFSFVRKLQEFELPYVSVTSLRSQEYKIVLRKSYWDSAYDDDVMENRVGLNLLYAQTVSDIEHGWILVTKEQHRQLKSLQEKVSKKEFLRLAQTLRHYGYLRFDACVADFPEKDCPVVVSAGNSELSLQLRLPGQQLREGSFRVTRMRCWRVTSSVPLPSGGTSSPSRGRGEVRLELAFEYLMSKDRLQWVTITSPQAIMMSICLQSMVDELMVKKSGGSIRKMLRRRVGGTLRRSDSQQAVKSPPLLESPDASRESMVKLSSKLSAVSLRGIGSPSTDASASAVHGNFAFEGIGDEDL
Q: How did the binding turn out when B1 was run?
A: binds
